From paper PMC7966362 come the findings set out here.

Protein sequences, listed by entry. Tags and fused reporters are not part of them.
UniProt Q80SW1: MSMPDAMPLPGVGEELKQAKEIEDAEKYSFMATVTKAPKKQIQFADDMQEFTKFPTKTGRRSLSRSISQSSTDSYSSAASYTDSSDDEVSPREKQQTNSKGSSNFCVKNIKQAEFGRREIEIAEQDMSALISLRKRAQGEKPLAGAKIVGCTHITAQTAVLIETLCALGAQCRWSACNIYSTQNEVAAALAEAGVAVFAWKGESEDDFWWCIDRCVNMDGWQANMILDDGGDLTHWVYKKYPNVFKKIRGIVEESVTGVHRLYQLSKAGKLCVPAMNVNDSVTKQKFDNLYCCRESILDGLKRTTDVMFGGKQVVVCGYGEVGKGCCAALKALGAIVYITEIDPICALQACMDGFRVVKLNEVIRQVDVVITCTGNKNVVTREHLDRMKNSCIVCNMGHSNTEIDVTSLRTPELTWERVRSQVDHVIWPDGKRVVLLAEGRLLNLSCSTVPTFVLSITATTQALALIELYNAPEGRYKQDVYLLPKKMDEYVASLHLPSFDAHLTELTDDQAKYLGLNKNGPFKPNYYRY

These are yes or no findings as the source states them, for the method shown. For some assays here: Binding calls can cover weak binding; strength is not graded here. For some assays here: Sequences can lack the tags named with a protein. For some assays here: Binding seen in cells or lysates may run through a third protein.

In assay [1] the target is T1, HA-tagged AE2 wild type (full length, mouse) (mouse) (UniProt P13808).
T1 sequence: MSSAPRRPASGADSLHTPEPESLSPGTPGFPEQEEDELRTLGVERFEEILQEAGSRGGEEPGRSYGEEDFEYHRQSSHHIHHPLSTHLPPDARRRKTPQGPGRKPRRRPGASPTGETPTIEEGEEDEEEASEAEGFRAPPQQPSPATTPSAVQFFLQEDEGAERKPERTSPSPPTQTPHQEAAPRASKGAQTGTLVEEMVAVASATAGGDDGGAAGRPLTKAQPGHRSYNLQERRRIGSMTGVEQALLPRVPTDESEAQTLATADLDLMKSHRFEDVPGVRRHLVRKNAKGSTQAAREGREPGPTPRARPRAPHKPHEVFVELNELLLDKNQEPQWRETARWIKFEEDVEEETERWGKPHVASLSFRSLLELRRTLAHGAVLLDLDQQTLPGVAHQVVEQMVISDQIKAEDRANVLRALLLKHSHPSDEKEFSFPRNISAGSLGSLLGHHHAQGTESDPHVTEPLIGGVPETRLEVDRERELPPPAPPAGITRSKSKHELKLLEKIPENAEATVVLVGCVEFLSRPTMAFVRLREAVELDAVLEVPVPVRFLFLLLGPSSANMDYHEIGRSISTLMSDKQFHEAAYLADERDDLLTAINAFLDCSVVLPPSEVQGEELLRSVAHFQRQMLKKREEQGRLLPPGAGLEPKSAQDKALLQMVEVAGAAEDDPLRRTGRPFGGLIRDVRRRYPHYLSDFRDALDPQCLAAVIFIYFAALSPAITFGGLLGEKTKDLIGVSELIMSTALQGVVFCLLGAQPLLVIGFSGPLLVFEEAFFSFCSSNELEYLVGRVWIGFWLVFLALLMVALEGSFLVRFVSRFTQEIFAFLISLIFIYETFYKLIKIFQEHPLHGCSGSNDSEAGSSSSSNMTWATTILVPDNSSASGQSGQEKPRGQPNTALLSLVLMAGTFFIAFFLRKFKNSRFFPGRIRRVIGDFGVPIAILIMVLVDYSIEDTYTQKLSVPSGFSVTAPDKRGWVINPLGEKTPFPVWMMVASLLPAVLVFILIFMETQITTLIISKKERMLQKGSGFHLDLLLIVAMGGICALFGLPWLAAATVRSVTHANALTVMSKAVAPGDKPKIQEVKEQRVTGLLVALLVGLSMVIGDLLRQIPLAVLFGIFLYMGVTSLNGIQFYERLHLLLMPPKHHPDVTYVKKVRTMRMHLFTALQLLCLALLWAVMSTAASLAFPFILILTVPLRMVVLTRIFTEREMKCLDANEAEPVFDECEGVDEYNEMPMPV
Kind of assay: co-IP; HEK 293T cells transfected with tagged constructs; lysis buffer 10 mM HEPES pH 7.4, 100 mM NaCl, 2 mM EDTA, 0.1% Triton X-100, 10 mM sodium fluoride; antibodies and Protein G overnight at 4 °C; immunoblot.

Assay [2] has as its target FLAG-tagged IRBIT wild type (UniProt Q80SW1). The description is as above.
Assay [3] has as its target T2, GST-tagged AE2-aa1-111 (mouse) (UniProt P13808).
T2 sequence: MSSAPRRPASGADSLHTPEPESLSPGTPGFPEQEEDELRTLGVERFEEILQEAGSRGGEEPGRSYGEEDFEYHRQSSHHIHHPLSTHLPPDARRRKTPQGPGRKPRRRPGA
Kind of assay: pull-down; purified MBP or MBP fusion protein from E. coli incubated with GST or GST fusion protein on Glutathione Sepharose 4B, 4 h at 4 °C; immunoblot with anti-MBP antibody; both purified.

Assay [4] has as its target T3, GST-tagged AE2-aa1-198 (mouse) (UniProt P13808).
T3 sequence: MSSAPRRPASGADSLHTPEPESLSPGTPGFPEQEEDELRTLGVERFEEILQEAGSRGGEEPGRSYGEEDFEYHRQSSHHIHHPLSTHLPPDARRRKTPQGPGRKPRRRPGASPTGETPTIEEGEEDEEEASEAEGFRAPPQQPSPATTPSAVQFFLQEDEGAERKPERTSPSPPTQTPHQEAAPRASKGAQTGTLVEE
Kind of assay: pull-down; GST fusion proteins of AE2 N-terminal parts on Glutathione Sepharose 4B incubated with lysate of HEK 293T cells expressing FLAG-tagged L-IRBIT, 4 h at 4 °C; immunoblot with anti-FLAG antibody; only the target purified. A general note: Immunoblotting shows a protein as a band on a membrane.

The target in assay [5] is T2, GST-tagged AE2-aa1-111 (mouse). The assay is described as above.
For assay [6], the target named is T4, GST-tagged AE2-aa1-88 (mouse) (UniProt P13808).
T4 sequence: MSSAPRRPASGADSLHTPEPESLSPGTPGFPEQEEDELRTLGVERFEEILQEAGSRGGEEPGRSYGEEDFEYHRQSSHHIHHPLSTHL
The description is as above.

The target of assay [7] is T5, GST-tagged AE2-aa1-45 (mouse) (UniProt P13808).
T5 sequence: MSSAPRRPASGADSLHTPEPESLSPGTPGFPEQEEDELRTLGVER
Described as above.

The target in assay [8] is T6, GST-tagged AE2-aa55-88 (mouse) (UniProt P13808).
T6 sequence: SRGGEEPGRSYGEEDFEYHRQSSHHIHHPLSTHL
The assay is described as above.

Assay [9] addresses T7, GST-tagged AE2-aa1-75 (mouse) (UniProt P13808).
T7 sequence: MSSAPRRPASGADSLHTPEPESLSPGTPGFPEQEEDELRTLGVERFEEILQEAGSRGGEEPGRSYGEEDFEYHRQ
The assay is described as above.

Assay [10] addresses T8, GST-tagged AE2-aa1-100 (mouse) (UniProt P13808).
T8 sequence: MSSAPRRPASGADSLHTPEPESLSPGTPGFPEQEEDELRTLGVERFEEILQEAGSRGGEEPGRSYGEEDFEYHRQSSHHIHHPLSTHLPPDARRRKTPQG
The assay is described as above.

For “FLAG-tagged L-IRBIT-aa107-610 (domain or fragment)”, the binding entry in assay [1] is “binds”.

For “FLAG-tagged L-IRBIT-aa1-184 (domain or fragment)”, the binding result in assay [1] is on record as “no binding”.

“FLAG-tagged L-IRBIT (aa 185–610) (domain or fragment)”: the binding result in assay [1] was “binds”.

Consider “HA-tagged AE2 mutant (aa 78–82), full length (from UniProt P13808)”, for which the binding result in assay [2] is recorded as “binds weakly”.

As for “MBP-tagged L-IRBIT-aa185-610 (domain or fragment)”, in [3], the binding entry is recorded as “binds”.

Take “FLAG-tagged L-IRBIT wild type (full length)”: the binding entry in [1] is “binds”; in [4], “binds”; in assay [5] it was “binds”; in assay [6], “binds”; in assay [7], “no binding”; in assay [8] it was “binds”. Also, the binding entry in assay [9] is “no binding”; in assay [10], “binds”.

“FLAG-tagged L-IRBIT-aa1-307 (domain or fragment)”: in assay [1], the binding result is recorded as “no binding”.
